Results as given in patent US7737138B2 (priority 2004, dated 2010).

test system: fibroblast cells (3T6)

Compound | RxI (therapeutic index) = LD50/EC50
CCN(CC)c1ccc2nc3ccc(N(CC)CC)cc3[s+]c2c1 [ETZ, Ethylthioninium Chloride (ETC) Zinc Chloride (Double Salt)] | 670
1,9-Diethyl Ethylthioninium chloride [DEETC] | 2,667
Ethylthioninium Chloride [ETC] | 480

Counter-ions that a name gives are not always drawn.
